Plain letter strings leave the end groups untold.
Test: peptide made by a vendor
Details: whole synthesis

## MSSRRSSSCKYCEQDFRAHTQKNAAFPFLAN (MSSRRSSSCKYCEQDFRAHTQKNAATPFLAN; Synthesized pepetide)
  purity (crude or final not stated): ˜85% pure
